Source: article PMC7819943, “Rice protein-binding microarrays: a tool to detect cis-acting elements near promoter regions in rice”
This is one part of the list.

These sequences were tested against T1, OsSMF1 (Oryza sativa, UniProt Q6ZLB0 1-436) (assay: protein-binding microarray (RPBM); PBS, 2% BSA, 51.3 ng/ul salmon testes DNA, 50 uM zinc acetate, 200 nM TF, 25 C, 1 h; high values mean tight binding). Details: protein: recombinant; tags: N-terminal polyhistidine and DsRed monomer fusion (pET32a); chain copies: 2; label: CyDye5-dUTP incorporated in the synthesized complementary strand; 3' TTTTT single-stranded linker to array surface; dsDNA, one strand shown.
T1 sequence: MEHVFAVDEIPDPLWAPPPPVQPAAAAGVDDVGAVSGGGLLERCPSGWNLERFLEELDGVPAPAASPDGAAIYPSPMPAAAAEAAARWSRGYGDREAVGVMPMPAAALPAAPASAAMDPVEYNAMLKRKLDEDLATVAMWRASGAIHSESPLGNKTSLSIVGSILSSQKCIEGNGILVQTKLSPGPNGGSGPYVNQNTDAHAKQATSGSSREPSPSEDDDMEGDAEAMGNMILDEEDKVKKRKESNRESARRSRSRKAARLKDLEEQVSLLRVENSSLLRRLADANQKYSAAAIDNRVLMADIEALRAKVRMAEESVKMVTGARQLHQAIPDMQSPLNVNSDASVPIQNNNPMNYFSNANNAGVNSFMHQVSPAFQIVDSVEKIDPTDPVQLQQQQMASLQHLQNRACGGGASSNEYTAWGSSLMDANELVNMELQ
In short: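 Polyhistidine-tagged DsRed fusions of transcription factors, joined at the N-terminus, were expressed in E. coli BL21-CodonPlus and isolated on Ni–NTA. They were incubated at 200 nM for 1 h at 25 °C on a custom Agilent array, double-stranded and BSA-blocked, in PBS with 2% BSA, salmon testes DNA and 50 µM zinc acetate. The binding signal is per-feature fluorescence intensity (arbitrary units) read on an Axon 4000B scanner after washing.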

Sequence	binding signal
GGAGCGCTGGCGCCGGGGCCCCAGCGTCGCCACGTCGATGCGGAGTCACCTAGTGCAG	5990 fluorescence intensity (a.u.)
TTCCATCATATCAAAACTTTCCTACACACATAAACTTTTACGGAGTCACCTAGTGCAG	8300 fluorescence intensity (a.u.)
GCGTGGCCCCACCGCTCAGTGACACACTCCACCCACACCCCGGAGTCACCTAGTGCAG	6410 fluorescence intensity (a.u.)
GTGCGCCATATCGATCACGTATACGTACGCGCGCGTGTTCCGGAGTCACCTAGTGCAG	3340 fluorescence intensity (a.u.)
CATAAACTCATTTTCATCCATCACCCGTCATCCCACAGCTCGGAGTCACCTAGTGCAG	4960 fluorescence intensity (a.u.)
ACCGCTTGCCGAACGTACCACACAGCCAATTCATCGAACACGGAGTCACCTAGTGCAG	3800 fluorescence intensity (a.u.)
TCCTTAAACCAGAGTGGTGACCTGGTCGAGGCCAGCCCGTCGGAGTCACCTAGTGCAG	3720 fluorescence intensity (a.u.)
CTTAATCGGTTAGGTTACTTGGTGTAATCAGCCTACCTGGCGGAGTCACCTAGTGCAG	4030 fluorescence intensity (a.u.)
GCAACTTCTACGTACTCTGTAAGGTAGCCAGCTGCTCGATCGGAGTCACCTAGTGCAG	3200 fluorescence intensity (a.u.)
TGCATGTGCACCTGACTGTTTGGGCTTAGTTGCTACAATGCGGAGTCACCTAGTGCAG	3660 fluorescence intensity (a.u.)
TACCTGAGGAGCACTCCATCGGTCCCAAAATAAATTAACACGGAGTCACCTAGTGCAG	27900 fluorescence intensity (a.u.)
TTGTAAAGGTGTTGATGTACCCCATGATGACATGGAGCTCCGGAGTCACCTAGTGCAG	6450 fluorescence intensity (a.u.)
AGGTTGTGCTGTGATGCTGGAGGGGAGTTGATTACAGGGACGGAGTCACCTAGTGCAG	4070 fluorescence intensity (a.u.)
TAATCCATGGCTAGATAACCGATGTCGTCACCAAACAGATCGGAGTCACCTAGTGCAG	4980 fluorescence intensity (a.u.)
CGCTTCCTCTGCATGCAACACTATTTCCAGCTCACCTCCTCGGAGTCACCTAGTGCAG	4960 fluorescence intensity (a.u.)
TCTTGCCTTCTCTCCCTGTGGGCACGCCGCCACCGACACCCGGAGTCACCTAGTGCAG	5660 fluorescence intensity (a.u.)
ACAAGGCCCACCTCAAGACCTGCGGCACCCGCGGCCACTCCGGAGTCACCTAGTGCAG	4090 fluorescence intensity (a.u.)
CAGGAGGAATCTATAATTTGTTTTGTTATTAGTCTACGTTCGGAGTCACCTAGTGCAG	4730 fluorescence intensity (a.u.)
GGAAATAAACACGTCATGGTGTATTCCTGGCGTGGTTGAGCGGAGTCACCTAGTGCAG	12800 fluorescence intensity (a.u.)
ATGTATATGACCGTCCACGTATATCGCCTAAGCAGTAAAACGGAGTCACCTAGTGCAG	4530 fluorescence intensity (a.u.)
CGCCGTCCACTCCATCCATCGCGTCACCATCCCTTCGCCGCGGAGTCACCTAGTGCAG	8260 fluorescence intensity (a.u.)

Sequence	binding signal
CTCGGCTGTGACGACGCACACACCGTCCGCAACCTCGCCCCGGAGTCACCTAGTGCAG	4320 fluorescence intensity (a.u.)
ATTTCTAGTCATGCCCGATAACCACTCCGGCACGACCACGCGGAGTCACCTAGTGCAG	3410 fluorescence intensity (a.u.)
CTCTCTCTCTCTCTGCAGCTAGGCCATATGCATCTCTCCTCGGAGTCACCTAGTGCAG	3590 fluorescence intensity (a.u.)
CCAGGTCAACATTGCCACGTGTGCGGCCACGTCAGCGAAACGGAGTCACCTAGTGCAG	33400 fluorescence intensity (a.u.)
TGGTAAAATATGGATGTGGCATAGATGCTTACGATGTCCTCGGAGTCACCTAGTGCAG	38600 fluorescence intensity (a.u.)
GCGAGATTCATTGGGTACCCGCCGGATATACCTGCGTCCGCGGAGTCACCTAGTGCAG	3390 fluorescence intensity (a.u.)
AATCACTTTTGCTTGGAAGATTAATCTACTAGAGTTAGTGCGGAGTCACCTAGTGCAG	3920 fluorescence intensity (a.u.)
ATCAAAATGGCAACAAAAGGGAGTCCAAAGTGAAAATTTTCGGAGTCACCTAGTGCAG	36100 fluorescence intensity (a.u.)
AGGCAAGATGAAATATTTTAGTTTAGTTTAGTTGATCTTTCGGAGTCACCTAGTGCAG	28300 fluorescence intensity (a.u.)
CAGTGGCTTGCCACTGGGGTCCTCGCGTGTCGCCCAGGCGCGGAGTCACCTAGTGCAG	3180 fluorescence intensity (a.u.)
TTGGGTTGGGTTAAGGCAGCCTCGGTTCCACGTACGCCGCCGGAGTCACCTAGTGCAG	4850 fluorescence intensity (a.u.)
ACATCTAAAAGTAACTTGAGTTTTCTAAGCAACACATAAGCGGAGTCACCTAGTGCAG	24700 fluorescence intensity (a.u.)
TCCGAAGTCCATGTCGCCATGACGTCACCACATGGCACGGCGGAGTCACCTAGTGCAG	11100 fluorescence intensity (a.u.)
CCAAAACGACCACGAGCACGCGCCACCAACACCGGCCGCGCGGAGTCACCTAGTGCAG	3460 fluorescence intensity (a.u.)
GCGTCATAGAAGGCAAGAGGTTCTTGCTTGTGCTTGATGACGGAGTCACCTAGTGCAG	3780 fluorescence intensity (a.u.)
ATGTATGGGGTGTGTGTGTGTGTATACTGCATAGTGATATCGGAGTCACCTAGTGCAG	4380 fluorescence intensity (a.u.)
GGTGGGCACGTGCAGTCTGCGCTGCGTCAGCTCTCGCCGCCGGAGTCACCTAGTGCAG	10800 fluorescence intensity (a.u.)
GGTCACTCTTCCACCTGCACGACATCGACCTCCACGCCTGCGGAGTCACCTAGTGCAG	3900 fluorescence intensity (a.u.)
AATCTTGTTGGATGTTGAATTTTCAGGCGGGGTGACGCAGCGGAGTCACCTAGTGCAG	4950 fluorescence intensity (a.u.)
TGAACCACGACCAGGCAGATTGTTTATGTCACATCGAAGACGGAGTCACCTAGTGCAG	3240 fluorescence intensity (a.u.)
ATCGATCGATCTCCACGGTGGCGGCTGGCTGGTCGGCGGACGGAGTCACCTAGTGCAG	3650 fluorescence intensity (a.u.)

Rewritten as comma-separated lines: entries from further up.
Sequence,binding signal
CAGTGGCTTGCCACTGGGGTCCTCGCGTGTCGCCCAGGCGCGGAGTCACCTAGTGCAG,3180 fluorescence intensity (a.u.)
TTGGGTTGGGTTAAGGCAGCCTCGGTTCCACGTACGCCGCCGGAGTCACCTAGTGCAG,4850 fluorescence intensity (a.u.)
ACATCTAAAAGTAACTTGAGTTTTCTAAGCAACACATAAGCGGAGTCACCTAGTGCAG,24700 fluorescence intensity (a.u.)
TCCGAAGTCCATGTCGCCATGACGTCACCACATGGCACGGCGGAGTCACCTAGTGCAG,11100 fluorescence intensity (a.u.)
CCAAAACGACCACGAGCACGCGCCACCAACACCGGCCGCGCGGAGTCACCTAGTGCAG,3460 fluorescence intensity (a.u.)
GCGTCATAGAAGGCAAGAGGTTCTTGCTTGTGCTTGATGACGGAGTCACCTAGTGCAG,3780 fluorescence intensity (a.u.)

Remaining list, next part

Sequence	binding signal
GTGCCGGACGTGTCCACGAGCACCGCCACGTCGCCGATGTCGGAGTCACCTAGTGCAG	12100 fluorescence intensity (a.u.)
TTATGGCACCACGTGGACCAATCAAATGCTGGCAGAACCGCGGAGTCACCTAGTGCAG	7040 fluorescence intensity (a.u.)
GTACAGCGGCGTCAGCGAGTACGCACGCACGCGCATGCTGCGGAGTCACCTAGTGCAG	4530 fluorescence intensity (a.u.)
GGCGAGTGAGTGGAGATGCACGTGTTGCTGCTTGCATGCTCGGAGTCACCTAGTGCAG	4110 fluorescence intensity (a.u.)
TCGTCTTGATATGCAAGCATACGTGGCATCCTAACCGGTGCGGAGTCACCTAGTGCAG	20600 fluorescence intensity (a.u.)
TAGTACTGTTATGGTACCAGCAATCTACCACGTCGATGTCCGGAGTCACCTAGTGCAG	6230 fluorescence intensity (a.u.)
GCTTTCTTCGTGGATGCGGACCTGACGCAACCTTTTGTCCCGGAGTCACCTAGTGCAG	3420 fluorescence intensity (a.u.)
CCTTTGAAGCAATCCTACAATCTAAATGACTCATATAGGACGGAGTCACCTAGTGCAG	4800 fluorescence intensity (a.u.)
GCCGCGCGCCGCCGAGGCCGTCCTCCGCACCCACGACCTCCGGAGTCACCTAGTGCAG	3140 fluorescence intensity (a.u.)
AGAAATGCGAGAATGAGTATGACGTATGCAGGGCAATGACCGGAGTCACCTAGTGCAG	6170 fluorescence intensity (a.u.)
CTTTTAGGCTGACGCGGAGCCCATCCGGCCCAAATCAAGCCGGAGTCACCTAGTGCAG	5850 fluorescence intensity (a.u.)
ACATGTGGGCTTGAGTCTCCGACTCATAACAGATGATCGTCGGAGTCACCTAGTGCAG	27800 fluorescence intensity (a.u.)
CTTGATCTGCATTCTTCATCTTCTGTCTCAACAAAATAATCGGAGTCACCTAGTGCAG	3420 fluorescence intensity (a.u.)
CGACAGCGTTACACGTCGTGTCCTCCTTGGGAGCGTCGCTCGGAGTCACCTAGTGCAG	5180 fluorescence intensity (a.u.)
CGTCAGTTGTCACGTCACCGGCGGCCGCACGCATCGCACCCGGAGTCACCTAGTGCAG	7980 fluorescence intensity (a.u.)
CGCTCGCCTTCTAGGCCCAAGCCCAATATCCCTCAAATATCGGAGTCACCTAGTGCAG	3420 fluorescence intensity (a.u.)
TTCTCAACCCAATGACTAGGATGGTGTCCATAACATTAAACGGAGTCACCTAGTGCAG	3740 fluorescence intensity (a.u.)
ATCCTCATCCCACCAAAATTCCCATGTCTTCTAACCAAACCGGAGTCACCTAGTGCAG	17800 fluorescence intensity (a.u.)
AAACCAATACTGACACCTCTGCCTCGCAACGCGGCGCGCGCGGAGTCACCTAGTGCAG	3850 fluorescence intensity (a.u.)
CCGCCATCTCCACCTCCGCCGCCGCGTCCAACTCCACCTTCGGAGTCACCTAGTGCAG	3390 fluorescence intensity (a.u.)
TCGACAAAACACAATAAACAATCAACCACGTACCAAGTTGCGGAGTCACCTAGTGCAG	3210 fluorescence intensity (a.u.)

Sequence	binding signal
TATACTCCCTGACGTCAAACTAACACATACATAATCTTCTCGGAGTCACCTAGTGCAG	6240 fluorescence intensity (a.u.)
TGACACCGTCGCCACCTCGCCACCCATCCATTTCCATTGCCGGAGTCACCTAGTGCAG	3650 fluorescence intensity (a.u.)
TCGGCGCCGCGCCGCGCCACGGAGGGTGTCACGAGACCGCCGGAGTCACCTAGTGCAG	4790 fluorescence intensity (a.u.)
TGTTCGCCACCAACCTCAAACCAACCAAGCAACCAACCCACGGAGTCACCTAGTGCAG	28800 fluorescence intensity (a.u.)
TTATATATAGCCACACACGTCCTTGTCTAGTCCACTACACCGGAGTCACCTAGTGCAG	3480 fluorescence intensity (a.u.)
AACCGAATCAAAGATACAGTCAACGAGTCATCGCAAGCAGCGGAGTCACCTAGTGCAG	4210 fluorescence intensity (a.u.)
CTGTCACTGGAACGAGGCACACGTCAGAAGCACTCCCAAACGGAGTCACCTAGTGCAG	7700 fluorescence intensity (a.u.)
TCTATCTTTCTTTCTGATTTCTCATTAATTTCGCATCAAGCGGAGTCACCTAGTGCAG	4060 fluorescence intensity (a.u.)
TCAGCTTGAGGTCCTAACACGTCTAATGAACAAGAAGTCGCGGAGTCACCTAGTGCAG	3720 fluorescence intensity (a.u.)
ACCTAGACGCTTCCTCGCCTGCTTATGTGTTCTGGAGCGACGGAGTCACCTAGTGCAG	4510 fluorescence intensity (a.u.)
ACTCCACCTCCTAGCACGGAAAATGACGCTACCCATTAATCGGAGTCACCTAGTGCAG	3340 fluorescence intensity (a.u.)
ATCATGGTCTTTTGCCAATATGGTATGCCACATAGACGATCGGAGTCACCTAGTGCAG	3370 fluorescence intensity (a.u.)
TACTATGCGACAGAGTGTGTTGTCATCACCATTAGCGTTGCGGAGTCACCTAGTGCAG	5420 fluorescence intensity (a.u.)
GAACGAGGACTGGAGACCGGAAAATGGGCGCTGTCGTCAGCGGAGTCACCTAGTGCAG	3490 fluorescence intensity (a.u.)
CACATTATATGGGGATGACTATGACTCCTAGTCGGTATGCCGGAGTCACCTAGTGCAG	3980 fluorescence intensity (a.u.)
GCCGCCTCCGCGACAGGTCACCCTCTTCCCTTCCATCCAACGGAGTCACCTAGTGCAG	4080 fluorescence intensity (a.u.)
CGCATCTGTCAAACTGTCAATGTGTCATTATATTGTGTGTCGGAGTCACCTAGTGCAG	5940 fluorescence intensity (a.u.)
GTCAGTACACACACGCACAAATCATGAATCTATCATTACTCGGAGTCACCTAGTGCAG	31900 fluorescence intensity (a.u.)
CCGCGGACCGCGGTAACGCCTGACGTCTGCGTTTGGTGCTCGGAGTCACCTAGTGCAG	4740 fluorescence intensity (a.u.)
CCGTGACATGCCACATCAACGCATGGAACAAGTTAAAGCTCGGAGTCACCTAGTGCAG	8000 fluorescence intensity (a.u.)
GTCTGTTCACTTTGATGCCAAAATTTTGACAGGATTTCTTCGGAGTCACCTAGTGCAG	25000 fluorescence intensity (a.u.)
